Measured values published in PubChem BioAssay AID1439 (NMMLSC, 2008).
Hit rate of the full screen: of about 220,000 compounds, about 770 (0.35%) were called active. The shares of active, inactive and inconclusive entries below differ from those in the screen. Rule as the data show it: active = binding response below about 49% or above about 150%; inconclusive = no clear call, values can overlap the other calls; inactive = in between.

By UniProt entry, the sequences of proteins in these tests, tags left out.
UniProt P09471, whole entry, looked up: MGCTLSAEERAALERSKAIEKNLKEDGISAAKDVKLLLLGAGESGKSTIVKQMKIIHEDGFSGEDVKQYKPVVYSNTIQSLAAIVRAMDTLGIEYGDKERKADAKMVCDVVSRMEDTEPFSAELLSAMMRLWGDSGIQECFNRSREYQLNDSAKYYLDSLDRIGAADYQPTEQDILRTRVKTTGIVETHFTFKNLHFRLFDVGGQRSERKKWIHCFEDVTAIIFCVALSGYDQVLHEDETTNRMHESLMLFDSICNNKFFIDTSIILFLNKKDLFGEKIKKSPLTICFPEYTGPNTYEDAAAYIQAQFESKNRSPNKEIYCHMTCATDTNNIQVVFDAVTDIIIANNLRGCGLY

The compounds below were run against Guanine nucleotide-binding protein G(o) subunit alpha (Homo sapiens) (UniProt P09471) (assay: RGS7-Galphao binding modulators, primary screen, biochemical, multiplexed bead flow cytometry (AID 1439;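 also: fluorescent Galphao held in activated GDP-AlF4 state binding bead-coupled RGS7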)). Conditions: at 10 µM, actives lie on both sides.
For O=C(c1ccccc1F)N1CCCC(C(=O)N2CCc3ccccc3C2)C1 (stereo unspecified), the binding response (% of control) was inconclusive: 41.8%.
With CCOc1ccc(S(=O)(=O)NC(Cc2cnc[nH]2)C(=O)O)cc1 (stereo unspecified) the binding response (% of control) was inconclusive: 90.5%.
In the case of COc1cc2c(cc1OC)CN(C(=O)c1sccc1C)CC2, the binding response (% of control) is reported as inconclusive: 58.4%.
With O=C(CSCc1ccc(Cl)cc1Cl)Nc1ccccc1C(=O)Nc1ccc(C(=O)O)cc1 the binding response (% of control) was inconclusive: 108%.
C/C(=N\OC(=O)c1ccc(F)cc1)c1ccc(F)c(F)c1 was tested, and the binding response (% of control) was inconclusive: 89.4%.
With COc1ccc(CC(=O)N2CCN=C2SCc2ccc([N+](=O)[O-])cc2)cc1 the binding response (% of control) was inconclusive: 100%.
With CC1(C)CC(=O)C(CC2CCCCC2=O)C(=O)C1 (stereo unspecified) the binding response (% of control) was inconclusive: 108%.
For Cc1ccc2nc(-c3ccncc3)cc(C(=O)Nc3ccc4c(c3)OCCO4)c2c1, the binding response (% of control) was inconclusive: 101%.
In the case of Cc1c(-c2ccc(/C=N/NC(=O)C(=O)Nc3ccccc3F)o2)cccc1[N+](=O)[O-], the binding response (% of control) is reported as inconclusive: 97%.
With NC(=S)N/N=C/c1cccc(Br)c1 the binding response (% of control) was inconclusive: 94.4%.
In the case of Clc1ccc(/C=N/Nc2ncnc3nc[nH]c23)cc1, the binding response (% of control) is reported as inconclusive: 97.1%.
For Cc1nn2c(-c3ccccn3)ccnc2c1Br, the binding response (% of control) was inactive: 106%.
In the case of CN1CCNC(=O)C1CC(=O)NCCC1=CCCCC1 (stereo unspecified), the binding response (% of control) is reported as inactive: 96.7%.
In the case of COc1ccc2c(C)cc(SCC(=O)N(C)C3CCS(=O)(=O)C3)nc2c1 (stereo unspecified), the binding response (% of control) is reported as inconclusive: 81.5%.
For N/C(=N\OC(=O)CCCOc1ccccc1)c1ccccn1, the binding response (% of control) was inconclusive: 119%.
With COc1ccccc1-n1cc(-c2ccc(Cl)cc2)[nH]c1=O the binding response (% of control) was inactive: 98.7%.
With COc1ccc(N2CCCC2=N)c(OC)c1 the binding response (% of control) was inconclusive: 83.2%.
With O=C(O)CCC(=O)Nc1cccc(C(=O)c2ccccc2)c1 the binding response (% of control) was inconclusive: 116%.
For Clc1ccc(-n2cc(-c3ccc(Br)cc3)[n+]3c2CCCCC3)cc1, the binding response (% of control) was inconclusive: 92.9%.
For C[C@@]12CCC=C[C@H]1[C@H](c1ccc(/C=C/c3ccccc3)cc1F)N(Cc1ccccc1)C2=O, the binding response (% of control) was inconclusive: 107%.
CCC(=O)N(C)CCc1cc2c(c(OC)c1/C=N/Nc1ccc(C(=O)O)cc1)OCO2 was tested, and the binding response (% of control) was inconclusive: 97.9%.
In the case of O=C(O)CCn1cc(/C=N/O)c(-c2cccc([N+](=O)[O-])c2)n1, the binding response (% of control) is reported as inconclusive: 107%.
O=C(COC(=O)CCNS(=O)(=O)c1cccc(C(F)(F)F)c1)NC(=O)NC1CCCCC1 was tested, and the binding response (% of control) was inactive: 99.8%.
With S=c1nccc(-c2ccc3c(c2)CCO3)[nH]1 the binding response (% of control) was inconclusive: 93.5%.
With CN(C)CC1CCCCC1OC(=O)/C=C/c1ccc(Cl)cc1Cl (stereo unspecified) the binding response (% of control) was inactive: 101%.
COc1ccccc1-n1cnc2cc(NCc3ccccc3O)ccc21 was tested, and the binding response (% of control) was inconclusive: 196%.
For CNC(=O)N1c2ccccc2NC(=O)CC1C (stereo unspecified), the binding response (% of control) was inconclusive: 0.48%.
With N#C/C(=C\c1ccc(F)c(Cl)c1)S(=O)(=O)c1ccccn1 the binding response (% of control) was inconclusive: -31.2%.
For CCOC(=O)c1cc(-c2csc(COc3ccc(Cl)cc3)n2)on1, the binding response (% of control) was inconclusive: 51.5%.
In the case of COc1cccc(C(=O)Nc2cc(Cl)c(O)c(Cl)c2)c1, the binding response (% of control) is reported as inconclusive: 29.7%.
In the case of Cn1c(=O)c2c(nc(N/N=C/c3cccs3)n2C)n(C)c1=O, the binding response (% of control) is reported as inconclusive: 139%.
In the case of CC(C)n1c(O)c(N=Nc2ccc(Cl)c(C(=O)O)c2)c2ccccc21, the binding response (% of control) is reported as inconclusive: 139%.
CC(=O)Nc1ccc(NC(=S)Nc2ccc(F)cc2)cc1 was tested, and the binding response (% of control) was inconclusive: 94.7%.
With O=c1[nH]cc(-c2ccccc2)c(=O)[nH]1 the binding response (% of control) was inconclusive: -24.5%.
With CCOC(=O)CNC(=O)c1ccc(Cl)s1 the binding response (% of control) was inconclusive: 164%.
Cc1ccc(N=N/C(=C\O)C(=O)c2ccc(Cl)cc2)cc1 was tested, and the binding response (% of control) was active: 44.9%.
For O=C(O)c1ccc(/C=N/Nc2ncc(C(F)(F)F)cc2Cl)cc1, the binding response (% of control) was inconclusive: -6.52%.
In the case of CCSC(=Nc1ccccc1)Nc1ccccc1, the binding response (% of control) is reported as inconclusive: 103%.
In the case of CC(OC(=O)CNC(=O)c1ccco1)C(=O)N(C)c1ccccc1 (stereo unspecified), the binding response (% of control) is reported as inconclusive: 101%.
CCc1ccc(NC(=S)N2CCCCCCC2)cc1 was tested, and the binding response (% of control) was inactive: 101%.
For Cc1ccc(C2C3=C(CC(C)(C)CC3=O)N(CCN3CCOCC3)C3=C2C(=O)CC(C)(C)C3)cc1, the binding response (% of control) was inactive: 99.6%.
With COc1ccccc1NC(=O)COC(=O)c1c[nH]c(=O)[nH]c1=O the binding response (% of control) was inconclusive: 129%.
For O=C1CCc2cc(S(=O)(=O)NC(Cc3ccccc3)C(=O)N3CCN(c4ccccn4)CC3)ccc2N1 (stereo unspecified), the binding response (% of control) was inactive: 96.4%.
In the case of CCCC(=O)N1CCN(c2ccc(NC(=S)NC(=O)c3cccc(C)c3)cc2)CC1, the binding response (% of control) is reported as inconclusive: 110%.
CCOC(=O)c1c(NC(=S)NC(C)=O)sc(C)c1C was tested, and the binding response (% of control) was inactive: 105%.
O=C(CC1SC2=NCCN2C1=O)Nc1ccccc1 (stereo unspecified) was tested, and the binding response (% of control) was inactive: 97.3%.
For COC(=O)C1=COC(C)C2CN3CCc4c([nH]c5cc(OC)c(OC)cc45)C3CC12 (stereo unspecified), the binding response (% of control) was inconclusive: 121%.
With CCn1ncc(/C=C/C(=O)NCc2cn(C)nc2C)c1C the binding response (% of control) was inactive: 94.9%.
For CC(=O)Nc1sc2c(c1C(c1ccccn1)N1CCN(C)CC1)CCCC2 (stereo unspecified), the binding response (% of control) was inconclusive: 99.4%.
Cc1cc(/C=N/NS(=O)(=O)c2ccc(F)c(Cl)c2)no1 was tested, and the binding response (% of control) was inconclusive: 99%.
In the case of Cc1ccc(CS(=O)(=O)Cc2ccc(C(=O)NCc3cccs3)o2)cc1, the binding response (% of control) is reported as inactive: 90%.
With C#CC(C)(C)NC(=S)NC1CC2C=CC1C2 (stereo unspecified) the binding response (% of control) was inconclusive: 100%.
For CC(C)N=C(NS(=O)(=O)c1ccccc1)C(Cl)(Cl)Cl, the binding response (% of control) was inactive: 96.8%.
O=C(CSCc1ccccc1Br)N/N=C/c1ccccc1C(=O)O was tested, and the binding response (% of control) was inactive: 101%.
With CCCCN(C)C(=O)c1cc2c(s1)-c1ccccc1S(=O)(=O)C2 the binding response (% of control) was inconclusive: 104%.
For COc1cccc(NC(=O)CCNC(=O)Cn2ccc3ccccc3c2=O)c1, the binding response (% of control) was inactive: 97.2%.
Cc1c(C=C2C(=O)c3ccccc3C2=O)cc(C#N)n1C was tested, and the binding response (% of control) was inconclusive: 89%.
For CC1=C(C#N)C(=O)N(C2CCS(=O)(=O)C2)C(=O)/C1=C\c1ccco1 (stereo unspecified), the binding response (% of control) was inconclusive: 41.8%.
With Cc1ccc(F)cc1NC(=O)N1CCN(C2c3ccccc3-c3ccccc32)CC1 the binding response (% of control) was inconclusive: 252%.
CC1(c2cccc3ccccc23)NC(=O)N(CC(=O)NC2CCS(=O)(=O)C2)C1=O (stereo unspecified) was tested, and the binding response (% of control) was inactive: 95.9%.
For Nc1ccccc1SC1CC(=O)N(c2ccccc2Cl)C1=O (stereo unspecified), the binding response (% of control) was inconclusive: 111%.
With COc1cc([C@@H]2c3cc4c(cc3[C@@H](NC3CCN(Cc5ccccc5)CC3)[C@H]3COC(=O)[C@H]23)OCO4)cc(OC)c1O the binding response (% of control) was inconclusive: 89.1%.
O=c1oc2ccccc2c(Nc2ccc(Cl)cc2)c1[N+](=O)[O-] was tested, and the binding response (% of control) was inconclusive: 88.1%.
In the case of O=C(NCC1CCCO1)Nc1cc(Cl)cc(Cl)c1 (stereo unspecified), the binding response (% of control) is reported as inconclusive: 110%.
With Cc1ccc(-c2nnc(Nc3ccc(C(=O)N(C)C)cc3)c3ccccc23)cc1S(=O)(=O)NC(C)(C)CO the binding response (% of control) was inconclusive: 113%.
With COC(=O)c1c(C)nc(C)c(C(=O)OC)c1-c1ccc(OC)cc1 the binding response (% of control) was inconclusive: 110%.
N#Cc1nc(Cl)c(Cl)c(NN)c1Cl was tested, and the binding response (% of control) was inconclusive: 108%.
COc1ccc(-n2c(-c3ccco3)nc3c(cnn3-c3ccc(C)cc3)c2=O)cc1 was tested, and the binding response (% of control) was inconclusive: 90.9%.
O=C(C1=NNCC1c1ccc(Cl)cc1)C1CO1 (stereo unspecified) was tested, and the binding response (% of control) was inactive: 98.9%.
In the case of CCOC(=O)C1=C(O)/C(=C/c2ccc(OCC(=O)O)c(OCC)c2)SC1=Nc1ccccc1, the binding response (% of control) is reported as inactive: 102%.
For CCc1ccc(N(CC(=O)Nc2ccccc2C(=O)N2CCOCC2)S(C)(=O)=O)cc1, the binding response (% of control) was inactive: 104%.
In the case of Cc1cc(C)nc(NC(=O)c2cccs2)n1, the binding response (% of control) is reported as inconclusive: 104%.
In the case of C=C(C)COc1ccc(-c2n[nH]c(C)c2-c2ccc(OC)c(OC)c2)c(O)c1, the binding response (% of control) is reported as inconclusive: 122%.
In the case of Cc1ccc(NC(=S)N(CCCN2CCCC2)Cc2cccn2Cc2ccc(Cl)cc2)cc1Cl, the binding response (% of control) is reported as active: 165% [activator].
For Cc1cc(C)nc(S/C=C/C(=O)c2ccc(F)cc2)n1, the binding response (% of control) was inconclusive: 40.6%.
With Clc1cccc(N2CCN(c3ncnc4nc[nH]c34)CC2)c1 the binding response (% of control) was inconclusive: 173%.
Cc1cc(OC(C(=O)O)c2ccccc2)c2c(C)c(Cc3ccccc3)c(=O)oc2c1 (stereo unspecified) was tested, and the binding response (% of control) was inconclusive: 85.5%.
With CNC(=O)Nc1cccc(-c2cc(-c3c(Cl)cccc3Cl)no2)c1 the binding response (% of control) was inconclusive: 362%.
For COC(=O)C(Cc1ccccc1)NS(=O)(=O)c1ccc(F)cc1Br (stereo unspecified), the binding response (% of control) was inconclusive: 102%.
For Cn1c(=O)c2c(nc(NCCCO)n2Cc2cccc(C(F)(F)F)c2)n(C)c1=O, the binding response (% of control) was inactive: 98.4%.
Cc1ccc2nc(SCC(=O)Nc3cccc(S(N)(=O)=O)c3)[nH]c2c1 was tested, and the binding response (% of control) was inconclusive: 105%.
With O=C1N(Cc2cccnc2)C[C@@H]2C[C@@H](c3ccccc3C(F)(F)F)N3CCC[C@@]123 the binding response (% of control) was inconclusive: 184%.
With CCCOc1ccc(CN2CCOCC2)cc1OC the binding response (% of control) was inconclusive: 169%.
For NS(=O)(=O)c1ccc(CNC(=O)/C=C/c2cccc([N+](=O)[O-])c2)cc1, the binding response (% of control) was inconclusive: 74.5%.
In the case of COCc1cc(C)nc2oc(C(=O)c3ccccc3)c(N)c12, the binding response (% of control) is reported as inconclusive: 97.9%.
In the case of CC(=O)Nc1ccc(OS(=O)(=O)c2cc(Cl)ccc2C)cc1, the binding response (% of control) is reported as inactive: 97.2%.
In the case of COc1cccc(NC(=S)N(CCN(C)C)Cc2cccs2)c1, the binding response (% of control) is reported as inconclusive: 90.2%.
For O=C(O)CCc1ccccc1OC(=O)c1ccccc1, the binding response (% of control) was inconclusive: 113%.
With O=C(CCNS(=O)(=O)c1ccc(Cl)cc1)NCc1ccccn1 the binding response (% of control) was inactive: 102%.
In the case of Nc1ccccc1SC1CC(=O)N(c2ccc(Cl)c(Cl)c2)C1=O (stereo unspecified), the binding response (% of control) is reported as inconclusive: 139%.
For Cc1cc(C)c2c(c1)/C(=N/Nc1ccc(S(N)(=O)=O)cc1[N+](=O)[O-])CCC2, the binding response (% of control) was inconclusive: 83.2%.
